The record followed here is article PMC7819943, “Rice protein-binding microarrays: a tool to detect cis-acting elements near promoter regions in rice”.

By UniProt entry, the sequences of proteins in these tests, tags left out.
UniProt Q0JBA9, entry or part of it: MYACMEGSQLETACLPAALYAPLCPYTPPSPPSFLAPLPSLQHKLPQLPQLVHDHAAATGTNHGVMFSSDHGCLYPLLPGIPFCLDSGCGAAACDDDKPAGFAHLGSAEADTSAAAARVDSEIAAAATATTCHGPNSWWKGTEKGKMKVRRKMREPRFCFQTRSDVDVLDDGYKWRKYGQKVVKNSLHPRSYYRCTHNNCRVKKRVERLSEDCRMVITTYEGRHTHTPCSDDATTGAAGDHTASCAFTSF

The list shows a part of the results.

In the experiment the target is OsWRKY34 (Oryza sativa, UniProt Q0JBA9 1-250). Description: protein-binding microarray (RPBM); PBS, 2% BSA, 51.3 ng/ul salmon testes DNA, 50 uM zinc acetate, 200 nM TF, 25 C, 1 h; high values mean tight binding. The following applies: protein: recombinant; tags: N-terminal polyhistidine and DsRed monomer fusion (pET32a); label: CyDye5-dUTP incorporated in the synthesized complementary strand; 3' TTTTT single-stranded linker to array surface; dsDNA, one strand shown. A digest of the protocol: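 Using Ni–NTA, transcription factors fused N-terminally to polyhistidine and DsRed were purified after expression in E. coli BL21-CodonPlus. These were incubated at 200 nM with a blocked, double-stranded custom Agilent array for 1 h at 25 °C in a buffer containing 50 µM zinc acetate, and the array was washed. The binding signal is per-feature fluorescence intensity (arbitrary units) on an Axon 4000B scanner.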
Regarding “TTCTTCGAATCCCTAGCATCACATCTTCTGCTACTCTGCTCGGAGTCACCTAGTGCAG”, the binding signal is 9420 fluorescence intensity (a.u.).
The result for “GCCTTTCTATAGTACTCTATTATACTTGCTCTTAGTAATACGGAGTCACCTAGTGCAG” reads 8870 fluorescence intensity (a.u.).
On to “CGGGATGATGGTTGTGTTTTTACCGCTGTTCTTTTTGTCGCGGAGTCACCTAGTGCAG”, for which the binding signal is 11200 fluorescence intensity (a.u.).
As for “TACTAGTTTGGTTCTCACTACTCACCACTCAGCATAATCTCGGAGTCACCTAGTGCAG”, the binding signal is 9330 fluorescence intensity (a.u.).
The result for “CTCTCCTCGCTTCCCGGGTTTGATACGTGGTACGTGACGCCGGAGTCACCTAGTGCAG” reads 8680 fluorescence intensity (a.u.); that for “GGGGCCGGGCGGGGCGGCCAGGTTGGTTTGCTTGGTTCCACGGAGTCACCTAGTGCAG”, 13500 fluorescence intensity (a.u.).
Consider “TCTGTTTGGTCAAACTTCTCTTCCTCTTACCAGCATATCACGGAGTCACCTAGTGCAG”, for which the binding signal was 10800 fluorescence intensity (a.u.).
Next, “GAATACTTTGCATATACCACGTACGCCGTGCTGCCAACTACGGAGTCACCTAGTGCAG”: 8210 fluorescence intensity (a.u.).
Next, “CTTATTTGTCTTCGCTGATGTTCACCCGTCAATTCCACATCGGAGTCACCTAGTGCAG”: 15700 fluorescence intensity (a.u.); “AATTTTCCTATATTTAGAATCCTTTTTGTCCTGTTATAAACGGAGTCACCTAGTGCAG”: 8090 fluorescence intensity (a.u.); “TATCGCTGCTTGCCCTTGTCCTCATGTACACAATCAGCTTCGGAGTCACCTAGTGCAG”: 10300 fluorescence intensity (a.u.).
In the case of “GCTAATCTCATAATCTTGTACTTTATGCTTGTTCTTGATTCGGAGTCACCTAGTGCAG”, the binding signal is 8080 fluorescence intensity (a.u.).
As for “CTATATTCGAGGGAGTCCTTGTGGACTTTTTCCTTCTTTCCGGAGTCACCTAGTGCAG”, the binding signal is 9390 fluorescence intensity (a.u.).
Regarding “GTTTTGCCATGGGTGTTCTCTTTCTTGGTAGTTCTATTTCCGGAGTCACCTAGTGCAG”, the binding signal is 9260 fluorescence intensity (a.u.).
The result for “ATATATATATATATATATATATATATATATATATGAGGGTCGGAGTCACCTAGTGCAG” reads 10000 fluorescence intensity (a.u.); that for “CTATTGATTGTTGGCGAGCATGTTCTTATCCAGTTGACTTCGGAGTCACCTAGTGCAG”, 10700 fluorescence intensity (a.u.); that for “CCTCTTCATCCTACTATTACCACATGGCACGAGTCTACCTCGGAGTCACCTAGTGCAG”, 8470 fluorescence intensity (a.u.).
The result for “CTTGCAACTGTTCTATACCCTTGAGATGGTGACTGCCTTTCGGAGTCACCTAGTGCAG” reads 8020 fluorescence intensity (a.u.); that for “GCTGGCTACTACTACTACTTGCACTCCACGCCCTCATCCCCGGAGTCACCTAGTGCAG”, 9270 fluorescence intensity (a.u.).
For the sequence “AATTCTACCGTTCTTGCTTTAATTCATGCCATGTCCGATGCGGAGTCACCTAGTGCAG”, the binding signal was 9640 fluorescence intensity (a.u.).
For “TATCAACGTTTACCGTTTCTTCTTTGCCATGTGCTTAATTCGGAGTCACCTAGTGCAG”, the binding signal was 9720 fluorescence intensity (a.u.).
“AGTCGCCGTTCCGCTGTATCGACTAACTTTTATAATAAGTCGGAGTCACCTAGTGCAG”: the binding signal was 9000 fluorescence intensity (a.u.).
The result for “CCCCTGCTGCACGTCCCAAATTATTATCACCTACTCCTACCGGAGTCACCTAGTGCAG” reads 8930 fluorescence intensity (a.u.); that for “GATGGCATTTGGAGCCATCGACAACTTGCGCCTTAATCACCGGAGTCACCTAGTGCAG”, 8610 fluorescence intensity (a.u.).
Next, “GTTACTGTGCTGTGGCCGATCGATTTTATCATTTATCATTCGGAGTCACCTAGTGCAG”: 9190 fluorescence intensity (a.u.); “CTCACTGCACACCTTCTTCCAATCACAACACCCCACCATGCGGAGTCACCTAGTGCAG”: 8130 fluorescence intensity (a.u.); “GGCGAGGCGAATGTGATGGGCTAAGTTTTGTCGTTGGCAACGGAGTCACCTAGTGCAG”: 8210 fluorescence intensity (a.u.).
Consider “CTCCTCTGTAGTGTTACCATTGACAAATATTTATCGGTTTCGGAGTCACCTAGTGCAG”, for which the binding signal was 8890 fluorescence intensity (a.u.).
As for “GCCTCACTTGTTATATATTTGAACAAACATTACTTACATACGGAGTCACCTAGTGCAG”, the binding signal is 9980 fluorescence intensity (a.u.).
Consider “CATAACCCATTCCTATTTAATTTTATCTACTTTTCTTAATCGGAGTCACCTAGTGCAG”, for which the binding signal is 9360 fluorescence intensity (a.u.).
Take “TCCACTCATAGACGCATCACATAGCCATCTCTCTCTCTCTCGGAGTCACCTAGTGCAG”: the binding signal is 9260 fluorescence intensity (a.u.).
Next, “ACCGCTTCGCCGAGCTCCTGGCTGCCGACACCAACACCGTCGGAGTCACCTAGTGCAG”: 9180 fluorescence intensity (a.u.).
Turning to “GCTGCCCGCTCTAATCTGTTTTGTCTCCATCTGCTATGATCGGAGTCACCTAGTGCAG”, the binding signal was 8950 fluorescence intensity (a.u.).
Next, “ACCCGCTTCTCGTCTCCTCGTCTCCTCGTTCGTCTCTCGCCGGAGTCACCTAGTGCAG”: 18000 fluorescence intensity (a.u.).
Next, “GGCGTGATAGTATTATTTTGCCACGTCAAATGTTCAGATTCGGAGTCACCTAGTGCAG”: 8380 fluorescence intensity (a.u.); “GAGCTTCATGCGCCACTTCTGCTTCCGCTCCACCGCGCAGCGGAGTCACCTAGTGCAG”: 8310 fluorescence intensity (a.u.).
The result for “ATCCCGAACGAAAATCGGAGCGTTACATTAGCCACCGCCGCGGAGTCACCTAGTGCAG” reads 8780 fluorescence intensity (a.u.); that for “CTATATTCAGTGTGCATATGTGTATTCCGTGTAATTTATTCGGAGTCACCTAGTGCAG”, 9070 fluorescence intensity (a.u.).
On to “CCTCTCCCATCATTTCTCACACACACATGTAAAACTCCCCCGGAGTCACCTAGTGCAG”, for which the binding signal is 9800 fluorescence intensity (a.u.).
As for “GACGACGGGTGTCTCGGTTGGGGTGAGGGTGGGCCCCACTCGGAGTCACCTAGTGCAG”, the binding signal is 10200 fluorescence intensity (a.u.).
Next, “CCGGCCACTACTCCTCCCGCACGCATCGTCTTCCAGCCTGCGGAGTCACCTAGTGCAG”: 8720 fluorescence intensity (a.u.); “ATTTACATTTGATTGTACGCTTGTTTACCGGTTACTGTCACGGAGTCACCTAGTGCAG”: 8400 fluorescence intensity (a.u.); “CCTATTACCATCTCAATCACCCATTCTCTCTCCAGCCACCCGGAGTCACCTAGTGCAG”: 8840 fluorescence intensity (a.u.).
“CTTCTAACTTTTTCTATCATATTAATATCTCATACACACACGGAGTCACCTAGTGCAG”: the binding signal was 8250 fluorescence intensity (a.u.).
Next, “GATGATGTGACTAAAAAGTTGTGTGTATATGACAGGTTGACGGAGTCACCTAGTGCAG”: 8160 fluorescence intensity (a.u.); “CGACGGGAGAGGAGGAGCCGGTGGGCGGGGTGGGGCCCACCGGAGTCACCTAGTGCAG”: 11000 fluorescence intensity (a.u.).
Next, “CTAGAGTTTATTTTATTTTTTTTTCATCTATTTAGTCCAACGGAGTCACCTAGTGCAG”: 8960 fluorescence intensity (a.u.).
The result for “ACCGTCCACGTGTCCCATGCTGCCGGCCCTTCCACACCCGCGGAGTCACCTAGTGCAG” reads 9410 fluorescence intensity (a.u.).
On to “CGTTGCATCTTTTCTCAGATTACCTATGTTAATGTACAATCGGAGTCACCTAGTGCAG”, for which the binding signal was 8570 fluorescence intensity (a.u.).
The result for “CTGGCACTTGGCACTTGGTTAATTCCACTCACTCATCACTCGGAGTCACCTAGTGCAG” reads 8260 fluorescence intensity (a.u.); that for “GCGCCTCTTCTTCAACACGCGGGAGTGGGCCGATCAGTTCCGGAGTCACCTAGTGCAG”, 8600 fluorescence intensity (a.u.).
For “TGCCTGAGTTTGGATTAGAGGGGTGCCTATATGGTGAAAACGGAGTCACCTAGTGCAG”, the binding signal is 9460 fluorescence intensity (a.u.).
For “TTGTGGGCTCATGAAAATTCCTTGTGTTTTTTGGCAATTACGGAGTCACCTAGTGCAG”, the binding signal was 8400 fluorescence intensity (a.u.).
For “TCTCTATGGTACATCCCCGTAATGTTCTCTTACATATGGGCGGAGTCACCTAGTGCAG”, the binding signal is 8130 fluorescence intensity (a.u.).
